These are yes or no findings as the source states them, for the method shown. In cells and extracts the contact can be indirect. Some entries that bind do so weakly or less than the wild type.

Protein sequences, listed by entry. Tags and fused reporters are not part of them. Residues count along the entry.
UniProt P0A7G6: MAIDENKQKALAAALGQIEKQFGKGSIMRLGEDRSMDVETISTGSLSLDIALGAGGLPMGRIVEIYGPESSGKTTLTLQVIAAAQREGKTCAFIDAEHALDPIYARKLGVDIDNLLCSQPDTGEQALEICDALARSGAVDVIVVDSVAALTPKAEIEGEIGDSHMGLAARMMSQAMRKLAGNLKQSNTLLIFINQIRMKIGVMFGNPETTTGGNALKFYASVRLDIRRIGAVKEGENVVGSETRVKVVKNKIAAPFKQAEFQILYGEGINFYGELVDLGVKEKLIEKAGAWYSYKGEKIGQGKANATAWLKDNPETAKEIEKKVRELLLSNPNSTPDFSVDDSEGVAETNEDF
UniProt P59665, residues 65-94: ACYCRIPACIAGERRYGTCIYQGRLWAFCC

Among the data in paper PMC8754131 are binding values, retold here.

The target of this assay is RecA (E. coli (endogenous in E. coli strain XPX-1)) (UniProt P0A7G6). Description: co-IP; RecA immunoprecipitated with an anti-RecA antibody from XPX-1 proteins collected at different time points after IPTG induction; Western blot with an anti-HNP-1 antibody. (In general: Immunoblotting shows a protein as a band on a membrane.)

On to “Human neutrophil peptide-1 (HNP-1) (from UniProt P59665 65-94)”, for which the binding result is “binds”.
